According to the supplement of paper PMC11732987, “Enantioselective OTUD7B fragment discovery through chemoproteomics screening and high-throughput optimisation” (Communications Chemistry, 2025):
This is one part of the list. The data scatter; read single values as rough.

Protein sequences, listed by entry. Tags and fused reporters are not part of them. Lines headed by an entry give the natural chain unless they say otherwise; changes in a name come on top. Residues count along the entry.
UniProt P36957: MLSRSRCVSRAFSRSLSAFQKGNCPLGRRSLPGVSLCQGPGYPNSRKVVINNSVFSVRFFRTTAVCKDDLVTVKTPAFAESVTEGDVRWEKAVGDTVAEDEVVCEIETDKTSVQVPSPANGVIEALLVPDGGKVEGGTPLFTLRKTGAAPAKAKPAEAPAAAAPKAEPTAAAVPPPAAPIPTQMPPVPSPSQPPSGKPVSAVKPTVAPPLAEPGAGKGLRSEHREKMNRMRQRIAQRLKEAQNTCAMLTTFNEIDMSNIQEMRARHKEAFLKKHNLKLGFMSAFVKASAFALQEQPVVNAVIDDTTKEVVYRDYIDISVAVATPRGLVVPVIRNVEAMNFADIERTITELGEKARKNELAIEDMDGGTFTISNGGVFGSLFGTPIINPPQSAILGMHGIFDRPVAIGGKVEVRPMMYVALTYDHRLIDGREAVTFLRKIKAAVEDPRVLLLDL
UniProt Q7L7V1: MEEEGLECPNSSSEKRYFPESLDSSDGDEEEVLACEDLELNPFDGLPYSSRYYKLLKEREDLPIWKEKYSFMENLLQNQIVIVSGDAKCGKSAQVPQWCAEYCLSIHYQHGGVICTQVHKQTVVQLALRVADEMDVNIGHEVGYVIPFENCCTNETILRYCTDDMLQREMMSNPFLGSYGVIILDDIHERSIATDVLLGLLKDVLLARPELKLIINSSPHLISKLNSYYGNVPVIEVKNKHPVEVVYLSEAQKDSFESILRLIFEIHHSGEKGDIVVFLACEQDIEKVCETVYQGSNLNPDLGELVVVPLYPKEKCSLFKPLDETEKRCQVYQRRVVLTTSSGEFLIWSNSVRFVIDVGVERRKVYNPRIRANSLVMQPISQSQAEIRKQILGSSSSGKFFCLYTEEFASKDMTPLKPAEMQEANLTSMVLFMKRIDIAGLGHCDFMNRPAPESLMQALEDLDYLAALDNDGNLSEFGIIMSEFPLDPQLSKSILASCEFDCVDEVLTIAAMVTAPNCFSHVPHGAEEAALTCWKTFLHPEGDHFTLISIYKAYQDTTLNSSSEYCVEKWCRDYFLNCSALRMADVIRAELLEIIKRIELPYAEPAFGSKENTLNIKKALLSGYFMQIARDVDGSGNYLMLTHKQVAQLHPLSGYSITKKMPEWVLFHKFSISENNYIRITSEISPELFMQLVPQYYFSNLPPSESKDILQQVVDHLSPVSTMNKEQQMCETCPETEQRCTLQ
UniProt Q92782, whole entry, looked up: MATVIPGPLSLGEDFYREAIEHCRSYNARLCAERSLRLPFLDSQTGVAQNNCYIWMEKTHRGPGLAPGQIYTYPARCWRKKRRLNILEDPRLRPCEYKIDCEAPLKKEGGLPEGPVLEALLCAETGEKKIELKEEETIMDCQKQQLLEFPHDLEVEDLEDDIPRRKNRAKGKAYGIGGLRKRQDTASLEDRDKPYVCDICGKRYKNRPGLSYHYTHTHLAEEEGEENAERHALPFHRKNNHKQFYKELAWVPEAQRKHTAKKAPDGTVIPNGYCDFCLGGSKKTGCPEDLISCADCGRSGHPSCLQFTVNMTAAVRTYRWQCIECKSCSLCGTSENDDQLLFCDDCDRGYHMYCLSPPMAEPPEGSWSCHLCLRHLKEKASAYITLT
UniProt Q99704, 67-90: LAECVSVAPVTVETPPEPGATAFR
UniProt O75064: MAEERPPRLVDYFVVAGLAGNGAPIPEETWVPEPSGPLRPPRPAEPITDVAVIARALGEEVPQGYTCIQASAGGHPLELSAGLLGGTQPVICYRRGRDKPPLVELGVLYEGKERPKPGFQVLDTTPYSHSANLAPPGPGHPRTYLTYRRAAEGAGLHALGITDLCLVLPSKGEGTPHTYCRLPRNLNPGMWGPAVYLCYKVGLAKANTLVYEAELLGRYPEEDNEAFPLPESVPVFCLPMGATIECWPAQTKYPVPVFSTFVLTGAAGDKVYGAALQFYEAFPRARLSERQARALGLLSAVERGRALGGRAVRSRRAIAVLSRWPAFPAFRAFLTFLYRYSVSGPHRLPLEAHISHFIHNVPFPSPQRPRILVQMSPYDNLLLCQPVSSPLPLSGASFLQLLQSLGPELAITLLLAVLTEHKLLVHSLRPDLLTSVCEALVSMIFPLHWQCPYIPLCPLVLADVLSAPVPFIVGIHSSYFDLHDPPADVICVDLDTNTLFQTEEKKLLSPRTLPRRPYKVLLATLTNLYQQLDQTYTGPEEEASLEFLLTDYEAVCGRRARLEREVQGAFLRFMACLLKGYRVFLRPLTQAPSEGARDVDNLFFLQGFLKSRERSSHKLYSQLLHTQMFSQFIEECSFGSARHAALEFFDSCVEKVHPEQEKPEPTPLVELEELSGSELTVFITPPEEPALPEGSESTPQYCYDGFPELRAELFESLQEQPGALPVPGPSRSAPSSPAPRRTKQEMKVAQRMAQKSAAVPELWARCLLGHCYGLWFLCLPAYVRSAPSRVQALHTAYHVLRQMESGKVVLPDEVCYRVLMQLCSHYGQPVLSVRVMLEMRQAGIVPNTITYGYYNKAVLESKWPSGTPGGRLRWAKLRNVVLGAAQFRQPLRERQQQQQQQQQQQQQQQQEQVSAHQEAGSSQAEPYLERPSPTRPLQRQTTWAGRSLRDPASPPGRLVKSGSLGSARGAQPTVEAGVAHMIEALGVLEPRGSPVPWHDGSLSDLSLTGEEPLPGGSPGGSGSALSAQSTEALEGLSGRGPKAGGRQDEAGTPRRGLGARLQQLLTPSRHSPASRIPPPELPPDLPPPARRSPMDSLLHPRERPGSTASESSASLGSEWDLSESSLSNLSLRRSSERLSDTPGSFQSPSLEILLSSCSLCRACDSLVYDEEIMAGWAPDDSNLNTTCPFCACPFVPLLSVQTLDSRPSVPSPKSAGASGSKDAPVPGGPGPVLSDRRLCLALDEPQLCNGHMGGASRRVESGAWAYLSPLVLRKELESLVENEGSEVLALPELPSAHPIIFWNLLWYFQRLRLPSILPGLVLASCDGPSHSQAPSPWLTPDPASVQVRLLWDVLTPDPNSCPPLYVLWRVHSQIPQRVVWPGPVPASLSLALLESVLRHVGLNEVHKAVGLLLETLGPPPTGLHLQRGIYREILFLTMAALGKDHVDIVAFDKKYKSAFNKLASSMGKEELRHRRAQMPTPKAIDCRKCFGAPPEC
UniProt Q9Y2L1: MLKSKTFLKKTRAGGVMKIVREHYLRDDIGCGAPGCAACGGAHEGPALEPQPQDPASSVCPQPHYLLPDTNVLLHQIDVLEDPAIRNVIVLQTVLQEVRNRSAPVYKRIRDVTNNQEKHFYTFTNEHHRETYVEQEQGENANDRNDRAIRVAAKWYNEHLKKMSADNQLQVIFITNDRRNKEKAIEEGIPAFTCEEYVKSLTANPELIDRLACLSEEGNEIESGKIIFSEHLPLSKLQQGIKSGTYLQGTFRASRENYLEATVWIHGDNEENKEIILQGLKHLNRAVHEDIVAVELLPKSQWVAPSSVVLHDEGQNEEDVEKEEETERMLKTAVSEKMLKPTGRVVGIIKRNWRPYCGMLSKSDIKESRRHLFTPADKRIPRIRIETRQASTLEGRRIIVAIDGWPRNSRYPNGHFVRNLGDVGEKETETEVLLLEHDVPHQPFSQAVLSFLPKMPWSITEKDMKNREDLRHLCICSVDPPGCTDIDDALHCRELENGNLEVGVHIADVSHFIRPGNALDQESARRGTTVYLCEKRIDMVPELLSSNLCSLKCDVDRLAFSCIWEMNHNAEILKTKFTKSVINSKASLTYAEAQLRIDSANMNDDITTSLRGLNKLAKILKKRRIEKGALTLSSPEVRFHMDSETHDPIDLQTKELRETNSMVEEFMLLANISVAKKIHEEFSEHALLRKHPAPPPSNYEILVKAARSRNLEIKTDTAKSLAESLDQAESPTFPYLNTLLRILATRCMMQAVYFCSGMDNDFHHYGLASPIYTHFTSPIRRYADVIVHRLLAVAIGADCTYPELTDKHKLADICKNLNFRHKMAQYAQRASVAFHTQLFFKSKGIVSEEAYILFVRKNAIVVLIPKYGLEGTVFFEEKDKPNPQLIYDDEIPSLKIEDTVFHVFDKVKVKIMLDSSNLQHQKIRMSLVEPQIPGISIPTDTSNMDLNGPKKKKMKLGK
UniProt Q5T7M9: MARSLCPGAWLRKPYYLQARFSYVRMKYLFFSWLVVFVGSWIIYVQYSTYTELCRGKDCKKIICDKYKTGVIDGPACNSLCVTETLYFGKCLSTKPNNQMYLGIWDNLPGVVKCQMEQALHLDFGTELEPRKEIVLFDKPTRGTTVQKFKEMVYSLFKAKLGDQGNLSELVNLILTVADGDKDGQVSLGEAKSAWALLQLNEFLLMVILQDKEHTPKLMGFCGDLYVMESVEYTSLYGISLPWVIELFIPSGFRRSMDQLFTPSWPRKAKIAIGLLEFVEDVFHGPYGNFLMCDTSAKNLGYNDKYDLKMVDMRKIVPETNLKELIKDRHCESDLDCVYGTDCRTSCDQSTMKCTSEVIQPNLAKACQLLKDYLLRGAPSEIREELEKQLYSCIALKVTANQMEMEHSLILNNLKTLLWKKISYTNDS
UniProt O60231: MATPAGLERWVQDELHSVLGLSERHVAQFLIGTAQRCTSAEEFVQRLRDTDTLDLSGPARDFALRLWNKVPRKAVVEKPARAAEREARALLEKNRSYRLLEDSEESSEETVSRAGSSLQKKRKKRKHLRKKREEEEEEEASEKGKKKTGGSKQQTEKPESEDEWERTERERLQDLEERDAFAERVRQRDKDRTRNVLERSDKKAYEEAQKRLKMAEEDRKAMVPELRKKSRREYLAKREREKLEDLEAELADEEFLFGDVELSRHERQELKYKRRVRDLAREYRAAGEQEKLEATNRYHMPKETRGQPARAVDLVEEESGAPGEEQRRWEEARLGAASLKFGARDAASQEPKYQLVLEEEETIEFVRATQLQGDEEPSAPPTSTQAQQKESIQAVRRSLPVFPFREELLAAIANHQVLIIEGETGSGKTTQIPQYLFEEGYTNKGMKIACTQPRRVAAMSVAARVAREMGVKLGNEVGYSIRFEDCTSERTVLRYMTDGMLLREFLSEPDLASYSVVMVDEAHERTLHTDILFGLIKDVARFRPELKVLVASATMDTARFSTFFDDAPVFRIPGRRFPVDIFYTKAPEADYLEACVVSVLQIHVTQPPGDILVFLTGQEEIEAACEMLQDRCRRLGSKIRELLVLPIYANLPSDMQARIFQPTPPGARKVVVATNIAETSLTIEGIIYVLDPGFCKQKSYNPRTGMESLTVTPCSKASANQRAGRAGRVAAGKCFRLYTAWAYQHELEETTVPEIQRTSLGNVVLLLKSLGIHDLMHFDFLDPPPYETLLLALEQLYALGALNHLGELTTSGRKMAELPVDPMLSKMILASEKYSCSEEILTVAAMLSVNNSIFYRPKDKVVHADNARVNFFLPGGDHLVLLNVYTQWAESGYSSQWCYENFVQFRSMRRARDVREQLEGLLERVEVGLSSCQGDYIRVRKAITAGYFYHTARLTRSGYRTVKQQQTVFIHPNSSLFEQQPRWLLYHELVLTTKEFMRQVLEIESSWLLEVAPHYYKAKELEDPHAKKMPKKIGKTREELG
UniProt Q96KC8: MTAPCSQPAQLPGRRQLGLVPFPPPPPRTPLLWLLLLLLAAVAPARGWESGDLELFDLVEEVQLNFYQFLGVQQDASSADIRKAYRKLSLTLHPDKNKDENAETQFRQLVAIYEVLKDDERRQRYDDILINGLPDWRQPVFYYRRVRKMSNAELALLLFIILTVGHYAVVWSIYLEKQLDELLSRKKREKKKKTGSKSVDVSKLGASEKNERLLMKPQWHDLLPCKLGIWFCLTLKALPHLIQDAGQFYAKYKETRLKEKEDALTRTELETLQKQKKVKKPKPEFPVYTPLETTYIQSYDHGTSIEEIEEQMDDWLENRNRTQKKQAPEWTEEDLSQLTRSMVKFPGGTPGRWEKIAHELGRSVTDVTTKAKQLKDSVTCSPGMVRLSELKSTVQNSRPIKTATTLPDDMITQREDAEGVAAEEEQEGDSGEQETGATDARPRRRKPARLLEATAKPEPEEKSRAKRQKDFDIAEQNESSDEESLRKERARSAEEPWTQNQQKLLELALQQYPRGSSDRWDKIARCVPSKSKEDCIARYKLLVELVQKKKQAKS
UniProt O43583: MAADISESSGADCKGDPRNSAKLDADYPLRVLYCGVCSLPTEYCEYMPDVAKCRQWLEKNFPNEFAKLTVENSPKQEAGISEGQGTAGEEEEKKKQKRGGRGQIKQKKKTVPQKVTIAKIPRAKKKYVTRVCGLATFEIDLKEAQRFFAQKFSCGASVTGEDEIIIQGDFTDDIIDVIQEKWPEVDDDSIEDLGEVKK
UniProt Q9NVM6: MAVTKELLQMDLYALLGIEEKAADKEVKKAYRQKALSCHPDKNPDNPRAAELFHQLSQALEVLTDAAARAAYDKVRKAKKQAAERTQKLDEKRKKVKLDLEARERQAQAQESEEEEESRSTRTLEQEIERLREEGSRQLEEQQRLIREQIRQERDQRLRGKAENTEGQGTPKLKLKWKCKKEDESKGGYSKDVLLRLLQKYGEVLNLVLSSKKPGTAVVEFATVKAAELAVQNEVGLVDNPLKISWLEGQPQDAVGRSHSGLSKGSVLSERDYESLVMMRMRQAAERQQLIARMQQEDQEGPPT

What was measured:
[1] = compound: ClCC(=O)N[C@@H]1CCCc2ccccc12; test: log2 mean competition ratio of IA-DTB cysteine labelling (DMSO/compound) (log2 ratio); higher = stronger cysteine engagement by compound; conditions: treatment time: 4 h, cell line lysate: HEK293T
Procedure: (§1)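 IA-DTB competitive cysteine chemoproteomics in HEK293T RIPA lysate. Lysates were treated with compound 29 or 30 at 50 or 200 µM for 4 h, then IA-DTB (500 µM, 1 h), trypsin-digested, NeutrAvidin-enriched and analysed by diaPASEF. Competition ratio = intensity DMSO / intensity compound (n=4 treated, n=64 DMSO); binding: mean log2 CR ≥ 1 and p ≤ 0.05 plus QC filters. Target is the cysteine site.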

[2] = compound: ClCC(=O)N[C@H]1CCCc2ccccc12; test: as above; conditions: treatment time: 4 h, cell line lysate: HEK293T
Procedure: as §1

Target	log2 mean competition ratio ([1]; 50 µM)	log2 mean competition ratio ([1]; 200 µM)	log2 mean competition ratio ([2]; 50 µM)	log2 mean competition ratio ([2]; 200 µM)
DPYSL2 C248 (UniProt Q16555)	-0.034	0.141	0.504	-0.0628
DOCK4 C530	0.0201	-0.245	-0.381	-0.467
DLST C66 (UniProt P36957)	-0.187	-0.213	-0.309	-0.109
DOCK1 C1254 (UniProt Q14185)	0.0597	0.00743	-0.909	-0.0761
DHX32 C8 (UniProt Q7L7V1)	-0.25	0.0591	0.122	-0.0156
DPF1 C101 (UniProt Q92782)	0.348	0.214	0.0453	0.271
DNAAF2 C508 (UniProt Q9NVR5)	-0.185	0.0313	-0.132	-0.0311
DNAJC2 C140 (UniProt Q99543)	-0.521	-0.0228	-0.556	-0.157
DIPK2A C170 (UniProt Q8NDZ4)	0.175	0.773	-0.182	0.411
DLG5 C1207 (UniProt Q8TDM6)	0.0907	-0.0558	0.0858	-0.076
DOK1 C70 (UniProt Q99704)	0.19	-0.238	0.407	-0.189
DIAPH3 C680 (UniProt Q9NSV4)	0.419	0.309	-0.128	0.539
DNAAF5 C612 (UniProt Q86Y56)	0.0831	-0.088	0.0925	-0.0962
DHX34 C57 (UniProt Q14147)	-0.395	0.618	0.161	0.652
DENND4C C1105 (UniProt Q5VZ89)	-0.132	0.0299	-0.437	-0.125
DOCK9 C94 (UniProt Q9BZ29)	-0.436	-0.229	-0.0936	0.152
DENND4B C815 (UniProt O75064)	-0.0853	-0.145	-0.328	-0.171
DNAJC13 C2110 (UniProt O75165)	-0.14	0.0188	-0.406	-0.0912
DIS3 C194 (UniProt Q9Y2L1)	-0.114	-0.14	0.0521	0.0963
DIPK1A C354 (UniProt Q5T7M9)	0.254	0.517	0.0436	0.402
DNAJC13 C2181 (UniProt O75165)	-0.209	0.172	-0.267	0.127
DISC1 C239	0.0131	-0.0697	-0.399	0.202
DLG5 C1240 (UniProt Q8TDM6)	-0.241	0.235	-0.692	0.0938
DHX16 C714 (UniProt O60231)	-0.0532	-0.18	0.373	-0.0327
DHX30 C461 (UniProt Q7L2E3)	0.0786	0.631	-0.261	0.186
DNAJC1 C380 (UniProt Q96KC8)	-0.00169	-0.26	0.109	-0.187
DENR C13 (UniProt O43583)	-0.19	-0.0359	-0.479	0.196
DOCK6 C595 (UniProt Q96HP0)	-0.143	-0.081	0.225	0.149
DNAJC17 C38 (UniProt Q9NVM6)	0.165	-0.307	0.135	-0.223

Only log2 mean competition ratio ([2]; 50 µM) and log2 mean competition ratio ([1]; 200 µM), for some of the entries so far:
Target	log2 mean competition ratio ([2]; 50 µM)	log2 mean competition ratio ([1]; 200 µM)
DNAJC1 C380 (UniProt Q96KC8)	0.109	-0.26
DENR C13 (UniProt O43583)	-0.479	-0.0359
